Converted amounts (≈) assume the structure as drawn.
Assays:
Pseudomonas aeruginosa [1] = assay: Antibacterial activity against Pseudomonas aeruginosa at MIC after 24 hrs by disk diffusion assay; format: functional
Pseudomonas aeruginosa [2] = assay: Antibacterial activity against Pseudomonas aeruginosa; format: functional

## O=C(O)c1cn(C2CC2)c2cc(N3CCNCC3)c(F)cc2c1=O [CIPROFLOXACIN]
Pseudomonas aeruginosa [1]
  diameter of the inhibition zone (DIZ): <=24 mm
Pseudomonas aeruginosa [2]
  MIC: 3.12 mg/L (≈ 9.42 µM)

Reference: ChEMBL document CHEMBL1154797, “Synthesis, anti-bacterial and anti-fungal activities of some novel Schiff bases containing 2,4-disubstituted thiazole ring” (2010)
